# Measurements taken from the supplement of paper PMC4840960.
# Structures can show the parent of a compound that is named as a salt. ± gives the standard deviation of the averaged measurements. Some of the results follow. Plates or batches differ in their baseline, so values are only roughly comparable.
# Test system: E18 rat cortical neuron-glia co-culture
# Experiment: total nuclei (DAPI) / Olig2+ nuclei (ratio); higher = more depletion of OPC/OL lineage cells
# Conditions: treatment time: 8 days (DIV5-DIV13)
Structure (SMILES),total nuclei (1 µM),total nuclei (5 µM)
CN(C)C(=O)C(CCN1CCC(O)(c2ccc(Cl)cc2)CC1)(c1ccccc1)c1ccccc1 [Loperamide],3.13,5.2
CC(C(O)c1ccc(O)cc1)N1CCC(Cc2ccccc2)CC1 (stereo unspecified) [Ifenprodil],4.02,4.9
CC(=O)OCC(=O)[C@@]12OC3(CCCC3)O[C@@H]1C[C@H]1[C@@H]3CCC4=CC(=O)C=C[C@]4(C)[C@@]3(F)[C@@H](O)C[C@@]12C [Amcinonide],2.81,2.5
CCCNC(=O)NS(=O)(=O)c1ccc(Cl)cc1 [Chlorpropamide],2.81,4.4
OC(c1cc(C(F)(F)F)nc2c(C(F)(F)F)cccc12)C1CCCCN1 (stereo unspecified) [Mefloquine],3.46,3.6
CC(=O)CCCCn1c(=O)c2c(ncn2C)n(C)c1=O [Pentoxifylline],3.65 ± 1.3,3.55 ± 0.92
CN(C)c1nc(N(C)C)nc(N(C)C)n1 [Altretamine],2.61,2.8
CCc1cc(C(N)=S)ccn1 [Ethionamide],3.93,4
CCCCCNC(=N)N/N=C/c1c[nH]c2ccc(OC)cc12 [Tegaserod],2.8,> 40
C#C[C@]1(OC(C)=O)CC[C@H]2[C@@H]3CCC4=CC(=O)CC[C@@H]4[C@H]3CC[C@@]21C [Norethisterone acetate],2.77,2.9
COc1ccc(CC2c3cc(OC)c(OC)cc3CC[N+]2(C)CCC(=O)OCCCCCOC(=O)CC[N+]2(C)CCc3cc(OC)c(OC)cc3C2Cc2ccc(OC)c(OC)c2)cc1OC (stereo unspecified) [Atracurium],4.4,8.3
O=C1Nc2ccc(Cl)cc2[C@@](C#CC2CC2)(C(F)(F)F)O1 [Efavirenz],2.6,3.6
C[C@H]1COc2c(C3(N)CC3)c(F)cc3c(=O)c(C(=O)O)cn1c23 [Pazufloxacin],5.3,5.7
COc1cc(C)c(Cc2cnc(N)nc2N)cc1OC [Ormetoprim],4.32,4.2
Cc1cccc(C)c1NC(=O)C1CCCCN1C (stereo unspecified) [Mepivacaine],2.8,2.8
CC[C@]1(O)C[C@@H]2CN(CCc3c([nH]c4ccccc34)[C@@](C(=O)OC)(c3cc4c(cc3OC)N(C)[C@H]3[C@@](O)(C(N)=O)[C@H](O)[C@]5(CC)C=CCN6CC[C@]43[C@@H]65)C2)C1 [Vindesine],> 40,> 40
C[C@]12C=CC(=O)C=C1CC[C@@H]1[C@@H]2[C@@H](O)C[C@@]2(C)[C@H]1CC[C@]2(O)C(=O)COC(=O)CCC(=O)O [Prednisolone hemisuccinate],3.02,3
Nc1nc(N)nc(-c2cc(Cl)ccc2Cl)n1 [Irsogladine],4.49,4.5
CC(=O)O[C@]1(C(C)=O)CC[C@H]2[C@@H]3C[C@H](C)C4=CC(=O)CC[C@]4(C)[C@H]3CC[C@@]21C [Medroxyprogesterone acetate],2.79,3.3
CC(COc1ccccc1)N(CCCl)Cc1ccccc1 (stereo unspecified) [Phenoxybenzamine],2.62,2.7
CO/N=C(\C(=O)N[C@@H]1C(=O)N2C(C(=O)O)=C(COC(N)=O)CS[C@H]12)c1ccco1 [Cefuroxime],3.04,3.1
CC1=C(C(=O)O)N2C(=O)[C@@H](NC(=O)[C@H](N)c3ccccc3)[C@H]2SC1 [Cephalexin],3.69,4.3
CC[C@]1(O)C[C@H]2CN(CCc3c([nH]c4ccccc34)[C@@](C(=O)OC)(c3cc4c(cc3OC)N(C=O)[C@H]3[C@@](O)(C(=O)OC)[C@H](OC(C)=O)[C@]5(CC)C=CCN6CC[C@]43[C@@H]65)C2)C1 [Vincristine],> 40,> 40

Structure (SMILES),total nuclei (1 µM),total nuclei (5 µM)
COCCCC/C(=N\OCCN)c1ccc(C(F)(F)F)cc1 [Fluvoxamine],3.4,3.8
C[C@]12C=CC(=O)C=C1CC[C@@H]1[C@@H]2[C@@H](O)C[C@@]2(C)[C@H]1CC[C@]2(O)C(=O)CO [Prednisolone],3.9,4.2
C[C@@](Cc1ccc(O)c(O)c1)(NN)C(=O)O [Carbidopa],3.61,3.4
O=C1CN(/N=C/c2ccc([N+](=O)[O-])o2)C(=O)N1 [Nitrofurantoin],3.79,4.2
CNCCCN1c2ccccc2CCc2ccccc21 [Desipramine],2.53,3
CC[C@@H](CO)NCCN[C@@H](CC)CO [Ethambutol],3.7,3.4
Cn1cnc([N+](=O)[O-])c1Sc1ncnc2[nH]cnc12 [Azathioprine],2.93,2.9
CCN(CC)CC(=O)Nc1c(C)cccc1C [Lidocaine],4.69,4.9
CO[C@H]1/C=C/O[C@@]2(C)Oc3c(C)c(O)c4c(O)c(c(/C=N/N5CCN(C6CCCC6)CC5)c(O)c4c3C2=O)NC(=O)/C(C)=C\C=C\[C@H](C)[C@H](O)[C@@H](C)[C@@H](O)[C@@H](C)[C@H](OC(C)=O)[C@@H]1C [Rifapentine],3.34 ± 0.72,5.05 ± 3
O=C(C1CCCCC1)N1CC(=O)N2CCc3ccccc3C2C1 (stereo unspecified) [Praziquantel],4.41,4.6
S=c1[nH]cnc2nc[nH]c12 [Mercaptopurine],2.73,5.2
Cc1ccccc1C(OCCN(C)C)c1ccccc1 (stereo unspecified) [Orphenadrine],3.65 ± 0.078,4.25 ± 0.21
COc1cc(-c2ccc(=O)[nH]n2)ccc1OC(F)F [Zardaverine],4.16,6.6
CN1CCN(C2=Nc3cc(Cl)ccc3Nc3ccccc32)CC1 [Clozapine],5,> 40
Brc1c(NC2=NCCN2)ccc2nccnc12 [Brimonidine],2.71,3.1
CO[C@H]1/C=C/O[C@@]2(C)Oc3c(C)c(O)c4c(O)c(c(/C=N/N5CCN(C)CC5)c(O)c4c3C2=O)NC(=O)/C(C)=C\C=C\[C@H](C)[C@H](O)[C@@H](C)[C@@H](O)[C@@H](C)[C@H](OC(C)=O)[C@@H]1C [Rifampicin],6.42,5.5
O=c1cnn([C@@H]2O[C@H](CO)[C@@H](O)[C@H]2O)c(=O)[nH]1 [Azauridine],2.99,5.6
Cc1ccsc1C(=CCCN1CCC[C@@H](C(=O)O)C1)c1sccc1C [Tiagabine],3.85,4.1
CN(C)CC/C=C1/c2ccccc2COc2ccc(CC(=O)O)cc21 [Olopatadine],2.77,2.8
O=C1c2c(O)cc(O)cc2OC(c2ccc(O)c(O)c2)C1O (stereo unspecified) [Taxifolin],5.1,4.7
C[C@H](N[C@@H](CCc1ccccc1)C(=O)O)C(=O)N1CCC[C@H]1C(=O)O [Enalaprilat],2.74,2.7
Cc1ncc([N+](=O)[O-])n1CC(O)CCl (stereo unspecified) [Ornidazole],2.63,2.6
CC(C)C[C@H](NC(=O)[C@@H](O)[C@H](N)Cc1ccccc1)C(=O)O [Ubenimex],2.55,2.7

Structure (SMILES),total nuclei (1 µM),total nuclei (5 µM)
Cc1ccnc2c1NC(=O)c1cccnc1N2C1CC1 [Nevirapine],2.8,3.1
CC(C)(C)NCC(O)COc1cccc2c1CC(O)C(O)C2 (stereo unspecified) [Nadolol],3.72,3.4
COc1c2occc2cc2ccc(=O)oc12 [Methoxsalen],4.16,4.1
Nc1nnc(-c2cccc(Cl)c2Cl)c(N)n1 [Lamotrigine],3.75,4
Cn1c(=O)c2nc[nH]c2n(C)c1=O [Theophylline],2.82,2.8
O=C1c2c(O)ccc(O)c2C(=O)c2c(NCCNCCO)ccc(NCCNCCO)c21 [Mitoxantrone],> 40,> 40
Nc1ccc(O)c(C(=O)O)c1 [Mesalamine],4.34,4.1
O=C1CN(/N=C/c2ccc(-c3ccc([N+](=O)[O-])cc3)o2)C(=O)N1 [Dantrolene sodium salt dihydrate],5.61,4.5
O=c1[nH]c(=O)n([C@H]2C[C@H](O)[C@@H](CO)O2)cc1F [Floxuridine],14.3,15.2
Nc1c2c(nc3c1CCC3)CCCC2 [Amiridine],4.02,5
CO/N=C(\C(=O)N[C@@H]1C(=O)N2C(C(=O)O)=C(COC(C)=O)CS[C@H]12)c1csc(N)n1 [Cefotaxime],3.67,3.5
CC(C)NCC(O)COc1ccc(COCCOC(C)C)cc1 (stereo unspecified) [Bisoprolol],3.92,4.1
CCCCCCNC(=O)n1cc(F)c(=O)[nH]c1=O [Carmofur],3.38,4
O=C(c1ccccc1)c1ccc2n1CCC2C(=O)O (stereo unspecified) [Ketorolac],2.64,2.8
C[C@@H]1C[C@H]2[C@@H]3C[C@H](F)C4=CC(=O)C=C[C@]4(C)[C@@]3(F)[C@@H](O)C[C@]2(C)[C@@]1(O)C(=O)SCF [Fluticasone],4.78,5.8
C[C@@H]1C[C@H]2[C@@H]3CCC4=CC(=O)C=C[C@]4(C)[C@@]3(F)[C@@H](O)C[C@]2(C)[C@H]1C(=O)CO [Desoximetasone],3.02,2.9
O=c1n(CCCN2CCN(c3cccc(Cl)c3)CC2)nc2ccccn12 [Trazodone],5.54,4.9
N[C@@H](C(=O)N[C@@H]1C(=O)N2C(C(=O)O)=C(Cl)CS[C@H]12)c1ccccc1 [Cefaclor],3.01,2.8
CC(=O)CC(c1ccccc1)c1c(O)c2ccccc2oc1=O (stereo unspecified) [Warfarin],3.95,4
CC1=C(/C=C/C(C)=C/C=C/C(C)=C/C(=O)O)C(C)(C)CCC1 [Retinoic Acid],3.87,4.1
Cc1c(O)c(=O)ccn1C [Deferiprone],4.2,5.7
O=C1C(CC[S+]([O-])c2ccccc2)C(=O)N(c2ccccc2)N1c1ccccc1 (stereo unspecified) [Sulfinpyrazone],2.8,3

# Rewritten as tab-separated lines: 3 of the compounds above
Structure (SMILES)	total nuclei (1 µM)	total nuclei (5 µM)
Cc1ccccc1C(OCCN(C)C)c1ccccc1 (stereo unspecified) [Orphenadrine]	3.65 ± 0.078	4.25 ± 0.21
COc1cc(-c2ccc(=O)[nH]n2)ccc1OC(F)F [Zardaverine]	4.16	6.6
CN1CCN(C2=Nc3cc(Cl)ccc3Nc3ccccc32)CC1 [Clozapine]	5	> 40
